# Measured values: the supplement of paper PMC10735217
# Structures can show the parent of a compound that is named as a salt. The list shows a part of the results. Repeats in this data set agree poorly, so a single value says little.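 The human kidney-derived cells carry a stably integrated construct of eight TEAD-binding elements driving luciferase, read by luminescence in a drug-repurposing library screen. A compound counts as a hit when its signal is more than five robust Z scores above the plate mean.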
# Tested on: HEK293A TEAD-LUC reporter
# Test: TEAD-luciferase reporter activity (YAP activation), robust Z score vs plate; higher = stronger YAP/TEAD activation
# Conditions: 24 h
Compound,TEAD-luciferase reporter activity (compound concentration: 200 nM),TEAD-luciferase reporter activity (compound concentration: 2 uM),TEAD-luciferase reporter activity (compound concentration: 10 uM)
CCCCc1nc(C)n(Cc2sccc2C(=O)OC)c(=O)c1Cc1ccc(-c2ccccc2-c2nnn[nH]2)cc1 [Milfasartan],inactive: -0.599,inactive: 0.188,inactive: -1.9
Cc1cc2ncc(C(=O)N3CCC(N4CCCC4)CC3)cn2n1,inactive: 3.17,–,inactive: 1.06
NCc1ccc(S(N)(=O)=O)cc1,inactive: -1.64,–,inactive: -0.87
NCc1ccc(S(N)(=O)=O)cc1 [mafenide acetate],–,inactive: 0.0641,–
O=C(O)Cn1c(=O)c(=O)[nH]c2cc([N+](=O)[O-])c(-n3ccnc3)cc21,inactive: -1.16,inactive: -0.966,inactive: -0.703
CCC1OC(=O)C(C)C(OC2CC(C)(OC)C(O)C(C)O2)C(C)C(OC2OC(C)CC(N(C)C)C2O)C(C)(O)CC(C)C2NC(COCCOC)OC(C2C)C1(C)O (configuration not stated) [dirithromycin],inactive: -1.15,inactive: 3.82,inactive: -0.918
COc1ccc(CC2c3cc(OC)c(OC)cc3CC[N+]2(C)CCC(=O)OCCCCCOC(=O)CC[N+]2(C)CCc3cc(OC)c(OC)cc3C2Cc2ccc(OC)c(OC)c2)cc1OC (configuration not stated),active: 7.42,–,inactive: -0.0962
COc1ccc(CC2c3cc(OC)c(OC)cc3CC[N+]2(C)CCC(=O)OCCCCCOC(=O)CC[N+]2(C)CCc3cc(OC)c(OC)cc3C2Cc2ccc(OC)c(OC)c2)cc1OC (configuration not stated) [cisatracurium besylate],–,inactive: -0.775,–
CN[C@H]1CN(c2ccc3c(=O)c(C(=O)O)cn(-c4nccs4)c3n2)C[C@@H]1OC [vosaroxin],inactive: -0.677,inactive: -1.66,inactive: 0.0145
C[C@]12CC[C@@H]3c4ccc(OC(=O)c5ccccc5)cc4CC[C@H]3[C@@H]1CC[C@@H]2O,inactive: 1.52,–,inactive: -1.04
C[C@]12CC[C@@H]3c4ccc(OC(=O)c5ccccc5)cc4CC[C@H]3[C@@H]1CC[C@@H]2O [Estradiol benzoate],–,inactive: -1.05,–
OC1C[Si](c2ccc(F)cc2)(c2ccc(F)cc2)CC1N1CCN(c2ccccc2)CC1 (configuration not stated),inactive: -0.487,–,inactive: 3.16
Oc1cccc(c1)/C/1=C/2\CCC(=N2)/C(=c\2/cc/c(=C(/C3=N/C(=C(\c4[nH]c1cc4)/c1cccc(c1)O)/C=C3)\c1cccc(c1)O)/[nH]2)/c1cccc(c1)O [Temoporfin],inactive: 0.453,inactive: -1.48,inactive: 0.323
CC(C)(C)NCC(O)COc1cccc2c1CCN(C=O)C2 (configuration not stated),inactive: 0.716,inactive: -0.916,inactive: 1.37
CCCn1cnc2c1c(=O)n(CCCCC(C)(C)O)c(=O)n2C,inactive: -0.794,inactive: 0.212,inactive: -0.465
CCN1CCN(c2cc(-c3ccccc3)c3ccccc3n2)CC1,inactive: 2.56,inactive: 0.312,inactive: -0.438
C[C@H](N)C(=O)N[C@@H](CCC(=O)N[C@@H](CC(=O)NCC(=O)O)C(=O)O)C(=O)O [Epithalon],inactive: 3.21,inactive: 0.535,inactive: -0.621
CON=C(C(=O)N[C@@H]1C(=O)N2C(C(=O)O)=C(COC(N)=O)CS[C@H]12)c1ccco1 [Cefuroxime],inactive: -0.387,–,inactive: -0.926
"CON=C(C(=O)N[C@@H]1C(=O)N2C(C(=O)O)=C(COC(N)=O)CS[C@H]12)c1ccco1 [_:_2016-03-02: cefuroxime, MiddleBrook]",–,inactive: -1.04,–
Cc1cc2ncc(C(=O)N3CCN(C)CC3)cn2n1,inactive: -0.747,–,inactive: 0.551
COc1cc(C(=O)N[C@@H](CC(=O)O)c2ccccc2C)nn1-c1ccccc1F,inactive: 0.931,inactive: 0.629,inactive: -1.55
CC(=O)N1CCCC1C(=O)N1CCC(c2ccccc2)CC1 (configuration not stated),inactive: -0.412,–,inactive: 4.86
CCOc1ccc(C[C@H]2NC(=O)CCSSC[C@@H](C(=O)N3CCC[C@H]3C(=O)N[C@@H](CCCN)C(=O)NCC(N)=O)NC(=O)[C@H](CC(N)=O)NC(=O)[C@H]([C@@H](C)O)NC(=O)[C@H]([C@@H](C)CC)NC2=O)cc1 [antocin II],inactive: -0.679,inactive: -0.949,inactive: 3.12
C/C(=C(\CCO)SSCC1CCCO1)N(C=O)Cc1cnc(C)nc1N (configuration not stated) [Fursultiamine],inactive: 0.346,inactive: -0.747,inactive: 3.81
CCCc1nc(NCCO)nc(N2CCOCC2)n1,active: 5.83,inactive: 0.613,inactive: -0.778
CC(C)CCCC(NS(=O)(=O)c1ccc(Cl)cc1)c1ccc(CCCC(=O)O)cc1 (configuration not stated),inactive: -1.96,inactive: -1.02,inactive: 1.12
CC(CS)C(=O)N1CCCC1C(=O)O (configuration not stated) [captopril slow release],inactive: -0.868,inactive: -1.64,inactive: 1.74

# Another view of some results above:
Compound | TEAD-luciferase reporter activity (compound concentration: 200 nM) | TEAD-luciferase reporter activity (compound concentration: 2 uM) | TEAD-luciferase reporter activity (compound concentration: 10 uM)
CCCc1nc(NCCO)nc(N2CCOCC2)n1 | active: 5.83 | inactive: 0.613 | inactive: -0.778
CC(C)CCCC(NS(=O)(=O)c1ccc(Cl)cc1)c1ccc(CCCC(=O)O)cc1 (configuration not stated) | inactive: -1.96 | inactive: -1.02 | inactive: 1.12

# Carrying on:

Compound,TEAD-luciferase reporter activity (compound concentration: 200 nM),TEAD-luciferase reporter activity (compound concentration: 2 uM),TEAD-luciferase reporter activity (compound concentration: 10 uM)
CC(=O)OCCc1ccc(OC[C@@H](O)CNC(C)(C)C)cc1,inactive: 0.544,inactive: -0.341,inactive: -1.2
CCN(CC)CCC1(c2ccccc2)C(=O)Oc2ccccc21 (configuration not stated),inactive: -0.563,inactive: -1.04,inactive: 0.188
CC(C)(CO)CCCCOCCCCC(C)(C)CO,inactive: -0.796,inactive: 2.38,inactive: 3.68
CC(C)(C)NCC(O)c1cc(Br)no1 (configuration not stated) [Broxaterol],inactive: -2.02,inactive: -0.909,inactive: -1.58
N#Cc1cccc(NS(=O)(=O)c2ccc(-c3cccc(N)c3)cc2)c1,inactive: -0.331,inactive: 0.0175,inactive: 0.653
CCOC(=O)/N=C(\N)c1ccc(OCc2cccc(COc3ccc(C(C)(C)c4ccc(O)cc4)cc3)c2)cc1,inactive: -1,inactive: -1.8,inactive: 0.104
Cc1ccc(CN2CCCCC23Cc2ccccc2CNC3=O)cc1C (configuration not stated),inactive: 0.541,–,active: 7.93
CCCCOCCOCCOCc1cc2c(cc1CCC)OCO2,–,inactive: -0.733,–
CCCCOCCOCCOCc1cc2c(cc1CCC)OCO2 [Piperonylbutoxide],inactive: -1.18,–,inactive: 0.705
COc1cc(CCc2cc(NC(=O)c3ccc(N4C[C@@H](C)N[C@@H](C)C4)cc3)n[nH]2)cc(OC)c1,inactive: -1.74,inactive: 1.92,inactive: -0.0385
NCCCC[C@H](OP(=O)(O)CCCCc1ccccc1)C(=O)N1CCC[C@H]1C(=O)O [Ceronapril],inactive: 0.864,inactive: -0.107,inactive: -0.294
O=C(Cc1ccc(F)cc1)N1CCC(C(=O)N2CCC(N3Cc4ccccc4C3=O)CC2)CC1,inactive: 0.949,–,inactive: 0.41
CN1C[C@H]2CCN(c3ccc(-c4ccc(-n5ncccc5=O)cc4)cc3)[C@H]2C1,inactive: -1.41,inactive: 0.398,inactive: 1.43
CCOC(=O)c1ccccc1Cc1ccc(C)c(Nc2cc(S(=O)(=O)O)c(N)c3c2C(=O)c2ccccc2C3=O)c1,inactive: -1.23,inactive: -0.547,inactive: 0.183
COc1ccccc1N1CCN(S(=O)(=O)c2ccc(C)cc2)CC1,inactive: -0.317,inactive: 0.681,inactive: 1.23
O=C(O)c1cc(F)c2nc(N3[C@@H]4CC[C@H]3C[C@@H](OCc3c(-c5ccccc5OC(F)(F)F)noc3C3CC3)C4)sc2c1,inactive: -0.415,inactive: -1.08,inactive: 3.05
"CCCCCCCCCCCCCCCC(=O)NCCO [N-palmitoylethanolamide, Stief]",inactive: 2.7,–,inactive: 2.92
CCCCCCCCCCCCCCCC(=O)NCCO [N-palmitoylethanolamide],–,inactive: 0.427,–
CCCCc1nn(-c2cc(NC(=O)CC)ccc2C(F)(F)F)c(=O)n1Cc1ccc(-c2ccccc2S(=O)(=O)NC(=O)OC(C)(C)C)cc1,inactive: -0.802,inactive: -1.51,inactive: -0.944
CNCc1ccc(OC)c([C@]2(N3CCC[C@H]3c3ncco3)C(=O)N(S(=O)(=O)c3ccc(OC)cc3)c3ccc(Cl)cc32)c1,active: 5.17,inactive: -0.812,inactive: 1.2
CCCCNC1CCc2ncsc2C1 (configuration not stated),inactive: 1.83,inactive: -0.0768,inactive: 0.864
CSc1ccc(OCc2ncc([N+](=O)[O-])n2C)cc1 [fexinidazole],inactive: -1.79,–,inactive: 1.26
CCOC(=O)COc1cccc(CCc2nc(-c3ccccc3)c(-c3ccccc3)o2)c1,inactive: -0.0461,inactive: 0.765,inactive: 1.6
O=C(O)CCSC(SCCC(=O)O)c1ccccc1CCCCCCCCc1ccccc1,inactive: -0.0668,inactive: -0.226,inactive: -1.47
CC(=O)OC[C@H]1O[C@@H](n2ncc(=O)[nH]c2=O)[C@H](OC(C)=O)[C@@H]1OC(C)=O,inactive: 2.15,inactive: -0.595,inactive: -0.859
CC[C@H](C)[C@H](N)C(=O)N1CCC[C@H]1C(=O)N1CCC[C@H]1C(=O)O,inactive: -2.14,inactive: 1.98,inactive: 3.1
CN(CCOc1ccc(Cc2sc(O)nc2O)cc1)c1ccccn1 [rosiglitazone maleate],inactive: -0.241,inactive: -2.07,inactive: -0.305
